According to the supplement of paper PMC10735217:
The other results are listed elsewhere or left out. This data set is noisy: repeats of one test often differ as much as different tests do.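 The human kidney-derived cells carry a stably integrated construct of eight TEAD-binding elements driving luciferase, read by luminescence in a drug-repurposing library screen. A compound counts as a hit when its signal is more than five robust Z scores above the plate mean.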

Tested on: HEK293A TEAD-LUC reporter
Experiment: TEAD-luciferase reporter activity (YAP activation), robust Z score vs plate; higher = stronger YAP/TEAD activation
Details: 24 h

Row | Compound | TEAD-luciferase reporter activity (compound concentration: 200 nM) | TEAD-luciferase reporter activity (compound concentration: 2 uM) | TEAD-luciferase reporter activity (compound concentration: 10 uM)
1 | CN1CCc2c(c3ccccc3n2Cc2ccccc2)C1 | inactive: 1.88 | inactive: 1.03 | inactive: 1.96
2 | CC(=O)n1cc(F)c(=O)n(C(=O)c2ccccc2C)c1=O | inactive: 2.47 | inactive: -0.253 | inactive: 2.03
3 | Cc1cc2ncc(C(=O)NCC(C)(C)NCC(=O)N3CCC[C@H]3C#N)cn2n1 [Anagliptin] | inactive: -0.692 | inactive: -0.341 | inactive: -0.623
4 | C=C1CC[C@H]2C(C)(CCC(O)[C@@]2(C)CO)[C@@H]1C/C=C1\C(=O)OCC1O (stereo partly drawn) [Andrographolide] | inactive: -0.366 | inactive: -1.66 | inactive: -1.22
5 | O=C(/C=C/c1cccnc1)NCCCCC1CCN(C(=O)c2ccccc2)CC1 [Daporinad] | inactive: 1.37 | inactive: 0.985 | inactive: 0.277
6 | CCCCCCC(C(C)O)n1cnc2c(=O)[nH]cnc21 (stereo not drawn) | inactive: -1.22 | inactive: -0.343 | inactive: -1.71
7 | OC[C@@H](O)[C@@H](O)[C@H](O)[C@@H](O)CO [D-Sorbitol] | inactive: 1.92 |  | inactive: 0.539
8 | COc1cc(OC)cc(N2CCN(C(=O)Nc3nc4cc(F)ccc4nc3OC)CC2)c1 | inactive: -1.22 | inactive: 2.02 | inactive: 1
9 | NCc1c[nH]c(=S)n1[C@H]1CCc2c(F)cc(F)cc2C1 [Pharmaprojects No. 4698] | inactive: -1.23 | inactive: -1.46 | inactive: 0.331
10 | CS(=O)(=O)c1ccc2c(c1)N(CCCN1CCC(C(N)=O)CC1)c1ccccc1S2 | inactive: -0.0361 | inactive: -1.58 | inactive: 0.636
11 | CC(C)n1c(=O)c(C(=O)NCCCN2CCCCC2)c(O)c2ccsc21 | inactive: -0.838 | inactive: 1.76 | inactive: 1.06
12 | Cc1cc(OCC(=O)O)cc(C)c1Cc1ccc(O)c(C(C)C)c1 [sobetirome] | inactive: -1.18 | inactive: -1.36 | inactive: 2.73
13 | Cn1c(N2CCCCS2(=O)=O)nc(C(=O)NCc2ccc(F)cc2)c(O)c1=O | inactive: 0.812 | inactive: -0.78 | inactive: 0.0466
14 | COCC1=C(C(=O)OC)[C@H](c2ccc(F)c(F)c2)N(C(=O)NCCCN2CCC(c3ccccn3)CC2)C(=O)N1 | inactive: -2.2 | inactive: 0.285 | inactive: 1.96
15 | C[C@@H]1CN(C[C@H](c2cccc(OC(F)(F)F)c2)C2(O)CCCCC2)C[C@H](C)N1 | inactive: -0.512 | inactive: -2.19 | inactive: -0.963
16 | O=C(Nc1ncc(SCCN2CCCC2)s1)[C@]1(c2ccc(S(=O)(=O)C3CC3)cc2)C[C@H]1C1CCCCC1 | inactive: -0.708 | inactive: -0.831 | inactive: -0.557
17 | CCOc1ccc(-n2c(N)nc3cc(C(F)(F)F)ccc32)cc1 | inactive: -0.483 | inactive: -0.302 | inactive: 0.282
18 | CNC(=O)NCc1ccccc1-c1ccc(CN2C(=O)C(NC(=O)C(C)(C)N)CCc3ccccc32)cc1 (stereo not drawn) | inactive: -0.64 | inactive: 0.314 | inactive: 1.24

Taken from above.
`COCC1=C(C(=O)OC)[C@H](c2ccc(F)c(F)c2)N(C(=O)NCCCN2CCC(c3ccccn3)CC2)C(=O)N1` | TEAD-luciferase reporter activity (compound concentration: 2 uM): inactive: 0.285
`CCCCCCC(C(C)O)n1cnc2c(=O)[nH]cnc21` (stereo not drawn) | TEAD-luciferase reporter activity (compound concentration: 200 nM): inactive: -1.22
